Source: the supplement of paper PMC11150407
In all, about 3,000 compounds went through this assay and about 45 (2%) showed an effect of 50% or more. This is one part of the list.

test system: MOLM1 and UCSD/AML1 (averaged); test: cell viability relative to DMSO control (POC); higher = less growth inhibition; details: 1 µM; 72 h
Description: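 Primary viability screen in the 3q26 EVI1-high AML cell lines MOLM1 and UCSD/AML1, compounds at 1 uM for 72 h. ATP CellTiter-Glo read-out given as percent viable over DMSO control (POC), averaged over duplicates. This mapping covers the TimTec NDL-3000 natural derivative library, whose compounds are identified by TimTec catalogue codes (ST...).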

First: CCOc1cc(C2C(C(=O)OCCc3ccccc3)=C(C)NC3=C2C(=O)CC(c2ccc(OC)cc2)C3)ccc1O (stereo not drawn)
Second: CCOc1cc(C2C(C(=O)OCCc3ccccc3)=C(C)NC3=C2C(=O)CC(C)(C)C3)cc(Br)c1O (stereo not drawn)
The cell viability of the first is higher: 109% for the first, 94.9% for the second.

Compared with `COc1ccc(NC(=O)CSc2nc3c(=O)[nH]cnc3n2C)cc1`, `COc1ccc(C)cc1NC(=O)CSc1nc2c(=O)[nH]cnc2n1C` is higher in cell viability: 86.1% for the first, 98.4% for the second.

Going from `COc1cc(O)c(C(=O)/C=C/c2ccco2)c(OC)c1` to `COc1ccc(/C=C/C(=O)Oc2ccc(C(C)C)cc2)c(OC)c1`, the cell viability falls from 112% to 101%.

First: COc1ccc(C(=O)CCNc2ccc(-c3nncn3C)cc2)cc1OC
Second: COc1ccc(C(=O)NCCOc2ccc(C)cc2)cc1OC
The cell viability of the first is higher: 102% for the first, 101% for the second.

First: Cc1ccc(N=Cc2c(O)c3ccccc3oc2=O)cc1C
Second: Cc1cccc(NC(=O)CSc2nc3ccccc3c(=O)[nH]2)c1C
The cell viability of the first is lower: 102% for the first, 105% for the second.

Going from `O=C(Cn1c(=O)cc(C(=O)N2CCc3ccccc3C2)c2ccccc21)Nc1cccc(Cl)c1` to `Cc1cc(I)ccc1NC(=O)C(Cc1c[nH]c2ccccc12)NC(=O)OCc1ccccc1` (stereo not drawn), the cell viability falls from 101% to 80.3%.

Going from `COc1cc(C(C)=O)ccc1OCc1ccc(Cl)cc1` to `COc1ccc(C(=O)CCS(=O)(=O)c2ccc(Cl)cc2)cc1OC`, the cell viability falls from 88.6% to 67.8%.

First: COc1ccc(/C=C/C(=O)c2ccc3c(c2)OCCO3)cc1COc1ccccc1
Second: O=C(/C=C/c1cccs1)c1ccc2c(c1)OCO2
The cell viability of the first is lower: 82.5% for the first, 97.2% for the second.

Compared with `Cn1c(=O)cc(O)c2ccccc21`, `COC(=O)c1cc2c([nH]c3ccccc32)c(C)n1` is lower in cell viability: 109% for the first, 90% for the second.

First: CC(=O)OC1CCC2(C)C3CCC4(C)C(CC5CCCCC54C(C)=O)C3CC3OC32C1 (stereo not drawn)
Second: CC(=O)C12CCCCC1CC1C3CC4OC45CC(O)CCC5(C)C3CCC12C (stereo not drawn)
The cell viability of the first is lower: 89.4% for the first, 96.3% for the second.

Going from `Cc1ccc(-n2c(SCC(=O)Nc3cccc(Br)c3)nc3c(=O)[nH]cnc32)cc1` to `COc1cccc(NC(=O)CSc2nc3c(=O)[nH]cnc3n2-c2ccc(C)cc2)c1`, the cell viability falls from 99.5% to 96.5%.

First: O=C(CSc1nc2ccccc2c(=O)[nH]1)NCCCc1ccccc1
Second: O=C(NCCc1c[nH]c2ccccc12)OCc1ccc([N+](=O)[O-])cc1
The cell viability of the first is higher: 102% for the first, 98.3% for the second.

Going from `NC(=O)NC(Cc1c[nH]c2ccccc12)C(=O)O` (stereo not drawn) to `N#C/C(=C\c1ccc(-c2cc(C(=O)O)ccc2Cl)o1)C(=O)NCCc1c[nH]c2ccccc12`, the cell viability rises from 98.1% to 112%.

`O=c1c(-c2ccccc2)coc2c(CN3CCOCC3)c(O)ccc12` and `O=C1ON=C(c2ccccc2)/C1=C/c1ccc(O)cc1` are the same in cell viability: 100% for the first, 100% for the second.

Going from `N[C@@H](Cc1ccc(Cl)cc1)C(=O)O` to `COc1cc2oc(=O)c(CC(=O)NCc3ccc(Cl)cc3)c(C)c2cc1OC`, the cell viability falls from 101% to 97.9%.

First: COc1ccc2c(c1)OC(c1ccccc1)CC2=O (stereo not drawn)
Second: COc1ccc(CNC(=O)c2n[nH]c(=O)c3ccccc23)cc1OC
The cell viability of the first is higher: 105% for the first, 90% for the second.

Compared with `O=c1oc2cc(O)ccc2cc1-c1ccc(Br)cc1`, `CCn1c(=O)c(-c2ccc3ccccc3n2)cc2cc(Cl)ccc21` is higher in cell viability: 104% for the first, 105% for the second.

First: COc1ccc(C(=O)Nc2ccc(-n3nc(C)cc3Cl)cc2)cc1OC
Second: COc1ccc(C(=O)Nc2c(OC)c(OC)cc3c2C(=O)OC3)cc1OC
The cell viability of the first is higher: 99.9% for the first, 92% for the second.

First: COC(=O)C(NS(=O)(=O)c1ccc2ccccc2c1)C(O)c1ccccc1 (stereo not drawn)
Second: O=C(O)/C(=C/C(=O)c1ccccc1)Nc1ccc(OC(F)(F)F)cc1
The cell viability of the first is lower: 97.1% for the first, 108% for the second.

First: COc1ccc2[nH]c(C)c(CCNC(=O)C3CCCCC3C(=O)OCC(F)(F)F)c2c1 (stereo not drawn)
Second: COc1ccc(Cl)cc1NC(=O)CSc1nc2c(=O)[nH]cnc2n1CC1CCCO1 (stereo not drawn)
The cell viability of the first is higher: 98.3% for the first, 93% for the second.

First: COc1ccc2c(c1OC)C(=O)OC2C[N+](=O)[O-] (stereo not drawn)
Second: CCOc1ccc(-c2cc(=O)c3cc(C)cc(C)c3o2)cc1OC
The cell viability of the first is lower: 92.7% for the first, 97.3% for the second.

Going from `CC(=O)NC1C(OCc2ccccc2)OC(CO)C(O)C1O` (stereo not drawn) to `COC(=O)C1CC23CCCN4CCC5(c6ccccc6NC15CC2)C43` (stereo not drawn), the cell viability falls from 112% to 98.1%.

Compared with `Cc1ccc(CNC(=O)CSc2nc3c(=O)[nH]cnc3n2-c2ccc(C)cc2)cc1`, `CCCCCOc1ccc(C2=NOC(=O)/C2=C\c2cc([N+](=O)[O-])ccc2O)cc1` is lower in cell viability: 119% for the first, 92.2% for the second.

First: Nc1cc(=O)[nH]c(SCC(=O)Nc2c(Cl)cccc2Cl)n1
Second: O=C(Oc1ccc2oc(-c3ccco3)cc(=O)c2c1)c1cccs1
The cell viability of the first is lower: 82.7% for the first, 106% for the second.

First: CCCCCCCCC(CCCCCCCCCCC(=O)O)C(=O)O (stereo not drawn)
Second: CCOC(=O)/C(C#N)=C/c1ccc(N(CC)CC)cc1
The cell viability of the first is lower: 99.5% for the first, 105% for the second.

First: COc1cc(-c2nnc(SCC(=O)N(C)C)n2-c2ccc3c(c2)OCO3)cc(OC)c1OC
Second: Cc1ccc2c(CN3CCN(C(=O)OC(C)(C)C)CC3)cc(=O)oc2c1
The cell viability of the first is higher: 98.8% for the first, 14.9% for the second.

`CCC1C/C(=C\c2ccc(OC)cc2)C(=O)/C(=C/c2ccc(OC)cc2)C1` (stereo not drawn) gave a cell viability of 12.8%.
